Key:
Tadpole = Tadpole loss of righting (LRR) and loss of swimming (LSR) reflexes; assay type: in vivo; conditions: ± SEM; for Tadpole LRR nHill: loss of righting reflex; for Tadpole LSR nHill: loss of swimming reflex
From the text: Table 3 discloses the anesthetic effects of the compounds of the present disclosure. In particular, the anesthetic effect of the compounds of the present disclosure on Loss of Righting Reflex (LRR) and Loss of Swimming Reflex (LSR).
Methods used are known in the art (see, e.g., Jiang, et al., Neurosteroid analogues. 9. Conformationally constrained pregnanes: structure-activity studies of 13,24-cyclo-18,21-dinorcholane analogues of the GABA modulatory and anesthetic steroids (3α,5α)- and (3α,5β)-3-hydroxypregnan-20-one. J. Med. Chem. 2003, 46, 5334-5348). Error limits are calculated as standard error of the mean (N=10 or more animals at each of five or more different concentrations).

[1] = test system: picrotoxin binding site on GABAA receptors; experiment: [35S]-TBPS displacement (inhibition of [35S]-TBPS binding); conditions: Hill coefficient; ± standard error of the mean
Description: The IC50 values for the compounds of the examples as non-competitive displacers of [^35S]-TBPS from the picrotoxin binding site on GABAA receptors are reported in Table 1.
Results presented are from duplicate experiments performed in triplicate. Error limits are calculated as standard error of the mean. Methods used are known in the art (see, e.g., Jiang, et al., Neurosteroid analogues. 9. Conformationally constrained pregnanes: structure-activity studies of 13,24-cyclo-18,21-dinorcholane analogues of the GABA modulatory and anesthetic steroids (3α,5α)- and (3α,5β)-3-hydroxypregnan-20-one. J. Med. Chem. 2003, 46, 5334-5348).

C[C@@]12CC[C@@H]3[C@H](CC[C@H]4C[C@@H](O)CC[C@]43C)[C@H]1C[C@@H](C#N)C2 [KK-137, (3β,5α,8α,9β,10α,13α,14β,16α)-3-Hydroxyandrost-16-carbonitrile]
Tadpole LRR nHill (Tadpole): −2.13 ± 0.07 | Tadpole LSR nHill (Tadpole): −33 ± 0.1 | nHill, inhibition of [35S]-TBPS binding [1]: 0.86 ± 0.09

C[C@@]12CC[C@@H]3[C@H](CC[C@@H]4C[C@@H](O)CC[C@]43C)[C@H]1C[C@@H](C#N)C2 [KK-142, (3β,5β,8α,9β,10α,13α,14β,16α)-3-Hydroxyandrost-16-carbonitrile]
nHill, inhibition of [35S]-TBPS binding [1]: 0.81 ± 0.05

C[C@@]12CC[C@@H]3[C@H](CC[C@@H]4C[C@@H](O)CC[C@]43C)[C@H]1CC(=CC#N)C2 [KK-138, 2-[(3β,5β,8α,9β,10α,13α,14β)-3-Hydroxyandrostan-16-ylidene]-acetonitrile]
Tadpole LRR nHill (Tadpole): −1.94 ± 0.08 | Tadpole LSR nHill (Tadpole): −20 ± 0.0 | nHill, inhibition of [35S]-TBPS binding [1]: 1.00 ± 0.08

C[C@@]12CC[C@H]3[C@@H]4CC[C@H](O)C[C@@H]4CC[C@@H]3[C@H]1CC(=O)C2 [KK-102]
Tadpole LRR nHill (Tadpole): −4.29 ± 6.63 | Tadpole LSR nHill (Tadpole): −33 ± 0.1 | nHill, inhibition of [35S]-TBPS binding [1]: 0.98 ± 0.11

C[C@@]12CC[C@H](O)C[C@@H]1CC[C@H]1[C@H]2CC[C@@]2(C)C=C(C#N)C[C@H]12 [KK-136, (3β,5α,8α,9β,10α,13α,14β)-3-Hydroxyandrost-16-ene-16-carbonitrile]
Tadpole LRR nHill (Tadpole): −2.32 ± 0.12 | Tadpole LSR nHill (Tadpole): −36 ± 0.1 | nHill, inhibition of [35S]-TBPS binding [1]: 1.01 ± 0.07

CO[C@H]1[C@H]2CC[C@@H]3[C@H]4CC(=O)C[C@]4(C)CC[C@H]3[C@]2(C)CC[C@@H]1O [KK-122, (3β,4α,5β,8α,9β,10α,3α,14β)-3-Hydroxy-4-methoxyandrostan-16-one]
Tadpole LRR nHill (Tadpole): −2.75 ± 1.13 | Tadpole LSR nHill (Tadpole): −36 ± 0.1 | nHill, inhibition of [35S]-TBPS binding [1]: 1.15 ± 0.15

C[C@@]12CC[C@H](O)C[C@H]1CC[C@H]1[C@H]2CC[C@@]2(C)C=C(C#N)C[C@H]12 [KK-141, (3β,5β,8α,9β,10α,13α,14β)-3-Hydroxyandrost-16-ene-16-carbonitrile]
nHill, inhibition of [35S]-TBPS binding [1]: 1.10 ± 0.13

CO[C@@H]1C[C@@H]2[C@H]3C[C@H](OC)[C@@H]4C[C@@H](O)CC[C@@]4(C)[C@@H]3CC[C@@]2(C)C1 [MQ-125, (3β,5β,6α,8α,9β,10α,13α,14β,16α)-6,16-Dimethoxyandrostan3-ol]
nHill, inhibition of [35S]-TBPS binding [1]: 0.95 ± 0.07

C[C@]1(O)CC[C@]2(C)[C@H](CC[C@H]3[C@H]2CC[C@@]2(C)C(=O)CC[C@H]32)C1 [KK-23, (3β,5β,8α,9β,10α,13α,14β)-3-Hydroxy-3-methylandrostan-17-one]
Tadpole LRR nHill (Tadpole): −1.39 ± 0.86 | Tadpole LSR nHill (Tadpole): −21 ± 0.5 | nHill, inhibition of [35S]-TBPS binding [1]: 0.94 ± 0.12

C[C@@]12CC[C@H](O)C[C@H]1CC[C@@H]1[C@H]3CC(=O)C[C@@H]3CC[C@H]12 [KK-114]
Tadpole LRR nHill (Tadpole): −4.32 ± 11.8 | nHill, inhibition of [35S]-TBPS binding [1]: 1.06 ± 0.14

C[C@@]12CC[C@@H]3[C@H](CC[C@H]4C[C@@H](O)CC[C@]43C)[C@H]1CC(=O)C2 [KK-97, (3β,5α,8α,9β,10α,13α,14β)-3-Hydroxyandrostan-16-one]
Tadpole LRR nHill (Tadpole): −1.35 ± 0.31 | Tadpole LSR nHill (Tadpole): −36 ± 0.1 | nHill, inhibition of [35S]-TBPS binding [1]: 0.94 ± 0.05

CO[C@@H]1C[C@@H]2[C@H]3CC[C@@H]4C[C@@H](O)CC[C@@]4(C)[C@@H]3CC[C@@]2(C)C1 [KK-134, (3β,5β,8α,9β,10α,13α,14β,16α)-16-Methoxyandrostan-3-ol]
nHill, inhibition of [35S]-TBPS binding [1]: 0.89 ± 0.07

C[C@@]12CC[C@@H]3[C@H](CC(=O)[C@@H]4C[C@@H](O)CC[C@@]34C)[C@H]1CC(=O)C2 [MQ-124, (3β,5β,8α,9β,10α,13α,14β)-3-Hydroxyandrostane-6,16-dione]
nHill, inhibition of [35S]-TBPS binding [1]: 1.02 ± 0.10

CO[C@H]1CC[C@]2(C)CC[C@@H]3[C@H](CC[C@@H]4C[C@@H](O)CC[C@]43C)[C@@H]12 [MQ-117, (3β,5β,8α,9β,10α,13α,14β,15α)-15-Methxoyandrostan-3-ol]
Tadpole LRR nHill (Tadpole): −1.94 ± 0.12 | Tadpole LSR nHill (Tadpole): −19 ± 0.5 | nHill, inhibition of [35S]-TBPS binding [1]: 0.54 ± 0.08

C[C@@]12CC[C@H]3[C@@H]4CC[C@H](O)C[C@H]4CC[C@@H]3[C@H]1CCC2=O [KK-18, (3β,5β,8α,9β,10α,13α,14β)-3-Hydroxyestran-17-one]
Tadpole LRR nHill (Tadpole): −1.98 ± 2.03 | nHill, inhibition of [35S]-TBPS binding [1]: 1.31 ± 0.22

CC(=O)[C@@H]1C[C@@H]2[C@H]3CC[C@@H]4C[C@@H](O)CC[C@@]4(C)[C@@H]3CC[C@@]2(C)C1 [KK-135, (3β,5β,8α,9β,10α,13α,14β,16α)-16-Acetylandrostan-3-ol]
nHill, inhibition of [35S]-TBPS binding [1]: 1.05 ± 0.06

C[C@@]12CC[C@H]3[C@@H]4CC[C@H](O)C[C@H]4CC[C@@H]3[C@H]1CC(=O)C2 [KK-103]
Tadpole LRR nHill (Tadpole): −4.04 ± 4.06 | Tadpole LSR nHill (Tadpole): −33 ± 0.1 | nHill, inhibition of [35S]-TBPS binding [1]: 0.86 ± 0.06

C[C@@]12CC[C@@H]3[C@H](CC[C@@H]4C[C@@H](O)CC[C@]43C)[C@H]1CC(=O)C2 [MQ-35, (3β,5β,8α,9β,10α,13α,14β)-3-Hydroxyandrostan-16-one]
Tadpole LRR nHill (Tadpole): −2.90 ± 0.1 | Tadpole LSR nHill (Tadpole): −36 ± 0.1 | nHill, inhibition of [35S]-TBPS binding [1]: 0.92 ± 0.07

CO[C@H]1[C@H]2CC[C@H]3[C@@H](CC[C@@]4(C)C(=O)CC[C@H]34)[C@]2(C)CC[C@@H]1O [KK-117, (3β,4α,5β,8α,9β,10α,13α,14β)-3-Hydroxy-4-methoxyandrostan-17-one]
Tadpole LRR nHill (Tadpole): −1.84 ± 0.32 | Tadpole LSR nHill (Tadpole): −20 ± 0.6 | nHill, inhibition of [35S]-TBPS binding [1]: 0.98 ± 0.11

C[C@]1(O)CC[C@]2(C)[C@@H](CC[C@H]3[C@H]2CC[C@@]2(C)C(=O)CC[C@H]32)C1 [KK-26, (3β,5α,8α,9β,10α,13α,14β)-3-Hydroxy-3-methylandrostan-17-one]
Tadpole LRR nHill (Tadpole): −4.68 ± 0.01 | Tadpole LSR nHill (Tadpole): −33 ± 0.2 | nHill, inhibition of [35S]-TBPS binding [1]: 1.15 ± 0.13

Reference: patent publication US10202413B2, “Neuroactive enantiomeric 15-, 16- and 17-substituted steroids as modulators for GABA type-A receptors” (priority 2013, dated 2019)
